Measurements: patent publication US20230220047A1, “PEPTIDES FOR TREATMENT OF SEPSIS AND CANCER” (NORWEGIAN UNIVERSITY OF SCIENCE AND TECHNOLOGY (NTNU), priority 2020, published 2023)
These are yes or no findings as the source states them, for the method shown. For some assays here: Binding seen in cells or lysates may run through a third protein. Some binding calls cover weakened binding; strength is not graded here. For some assays here: Where a sequence is shown, tags or fusion partners need not be part of it.

The chains behind the UniProt entries cited, without tags or fusion partners.
UniProt P58753: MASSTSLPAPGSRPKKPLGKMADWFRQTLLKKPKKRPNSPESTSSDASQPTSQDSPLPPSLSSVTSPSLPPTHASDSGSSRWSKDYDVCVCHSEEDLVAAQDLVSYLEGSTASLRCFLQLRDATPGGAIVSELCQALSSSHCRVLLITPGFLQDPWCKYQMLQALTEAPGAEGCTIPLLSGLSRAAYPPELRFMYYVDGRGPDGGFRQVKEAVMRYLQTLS

Experiments:
[1] = target: T1, SLAMF1 (human, no tag stated; overexpressed in HEK293T cells or endogenous in primary human macrophages) (human) (UniProt Q13291); assay: co-precipitation, not described further (data not shown)
T1 sequence (looked up): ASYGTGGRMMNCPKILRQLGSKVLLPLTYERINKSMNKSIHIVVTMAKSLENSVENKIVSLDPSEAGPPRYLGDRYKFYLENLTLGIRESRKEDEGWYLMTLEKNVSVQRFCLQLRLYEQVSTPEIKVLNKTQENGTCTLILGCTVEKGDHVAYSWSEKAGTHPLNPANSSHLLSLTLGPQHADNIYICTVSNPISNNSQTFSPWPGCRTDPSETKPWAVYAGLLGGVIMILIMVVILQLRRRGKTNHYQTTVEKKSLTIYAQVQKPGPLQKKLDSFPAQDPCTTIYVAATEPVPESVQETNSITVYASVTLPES

[2] = target: Mal^Flag (human Mal with Flag tag, overexpressed in HEK293T cells) (human) (UniProt P58753); assay: biotinylated peptide on NeutrAvidin beads, lysate of HEK293T cells overexpressing Mal^Flag
[3] = target: T2, TAK1 (endogenous, human) (human) (UniProt O43318); assay: biotinylated peptide on NeutrAvidin beads, lysates of LPS-stimulated primary human macrophages
T2 sequence (looked up): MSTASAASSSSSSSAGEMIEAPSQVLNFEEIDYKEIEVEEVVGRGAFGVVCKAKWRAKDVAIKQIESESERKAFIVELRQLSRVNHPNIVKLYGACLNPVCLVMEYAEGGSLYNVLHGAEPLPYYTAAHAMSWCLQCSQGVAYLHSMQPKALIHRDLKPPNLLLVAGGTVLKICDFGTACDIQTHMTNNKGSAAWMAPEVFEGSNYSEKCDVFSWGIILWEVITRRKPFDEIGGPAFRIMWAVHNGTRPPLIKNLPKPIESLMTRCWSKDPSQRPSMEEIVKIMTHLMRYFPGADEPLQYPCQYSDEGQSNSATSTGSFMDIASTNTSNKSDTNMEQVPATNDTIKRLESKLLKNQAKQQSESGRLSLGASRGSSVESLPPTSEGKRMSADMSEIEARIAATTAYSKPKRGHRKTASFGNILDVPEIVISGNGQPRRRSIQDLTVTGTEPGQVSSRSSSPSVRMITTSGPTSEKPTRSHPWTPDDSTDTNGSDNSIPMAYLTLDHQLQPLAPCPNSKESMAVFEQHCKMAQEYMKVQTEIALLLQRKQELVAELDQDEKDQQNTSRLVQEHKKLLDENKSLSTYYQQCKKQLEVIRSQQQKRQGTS

[4] = target: Mal^Flag (human Mal with Flag tag, overexpressed in HEK293T cells) (human) (UniProt P58753); assay: biotinylated peptide on NeutrAvidin beads, lysate of HEK293T cells overexpressing Mal^Flag, 300 mM NaCl and 1% Triton X100
[5] = target: T2, TAK1 (endogenous, human) (human); assay: biotinylated peptide on NeutrAvidin beads, lysates of LPS-stimulated primary human macrophages, Western blot; within a complex

binding [1]: binds
binding [2]: binds
binding [3]: binds
binding [4]: binds
binding [5]: binds
B1: Pep7-Penetratin-biotin (C-terminally biotinylated P7-Pen) (peptide)
peptide: ITVYASVTLTGRQIKIWFQNRRMKWKK
modifications: C-terminally biotinylated
